B1: TRF25 (peptide)
peptide: APYAPQQIHYWSTLGFKGSC
B2: TRF26 (peptide)
peptide: AHKVVPQRQIRHAYNRYGSC
B3: TRF21 (peptide)
peptide: QYHHFMNLKRQGRAQAYGSC
B4: TRF23 (peptide)
peptide: FRGWAHIFFGPHVIYRGGSC
B5: TRF19 (peptide)
peptide: KEDNPGYSSEQDYNKLDGSC
B6: TRF24 (peptide)
peptide: SVKPWRPLITGNRWLNSGSC
B7: TBPM021 (peptide)
peptide: ATRWCPSARPATPTTATGSC
B8: TBPM003 (peptide)
peptide: PTGWCPAPDPPRLHPLHGSC

Sequences of proteins named here, by UniProt entry; tags and fusion partners are left off. Residues count along the entry.
UniProt P02787, residues 20-698: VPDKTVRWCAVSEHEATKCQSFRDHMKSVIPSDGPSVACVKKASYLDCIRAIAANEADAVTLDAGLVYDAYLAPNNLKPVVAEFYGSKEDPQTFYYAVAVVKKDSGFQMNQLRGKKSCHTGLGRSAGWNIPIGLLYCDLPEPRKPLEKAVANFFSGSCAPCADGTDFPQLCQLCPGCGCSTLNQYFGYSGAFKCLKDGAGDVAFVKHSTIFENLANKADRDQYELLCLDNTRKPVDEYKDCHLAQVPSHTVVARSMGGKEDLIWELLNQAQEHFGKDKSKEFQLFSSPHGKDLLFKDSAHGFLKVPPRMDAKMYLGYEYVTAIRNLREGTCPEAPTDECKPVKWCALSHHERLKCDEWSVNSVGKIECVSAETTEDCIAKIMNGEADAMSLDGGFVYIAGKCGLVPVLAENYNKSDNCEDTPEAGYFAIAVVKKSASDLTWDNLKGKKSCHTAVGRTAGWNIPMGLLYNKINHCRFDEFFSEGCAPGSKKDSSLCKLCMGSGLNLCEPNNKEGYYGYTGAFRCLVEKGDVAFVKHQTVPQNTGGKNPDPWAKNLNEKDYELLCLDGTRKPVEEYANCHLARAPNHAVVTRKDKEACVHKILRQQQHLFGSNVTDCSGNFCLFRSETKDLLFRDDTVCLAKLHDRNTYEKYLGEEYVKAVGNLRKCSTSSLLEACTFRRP

This passage reports binding results from patent publication US20140128280A1.

No constants are given. Whether binding was seen depends on the method and setting. Some entries that bind do so weakly or less than the wild type.

In one test the target is transferrin (human) (UniProt P02787). In words: peptide microarray, Alexa 555 transferrin with Alexa 647 E. coli lysate competitor.
B1: the binding result is reported as “binds”.
As for B2, the binding result is recorded as “binds”.
For B3, the binding result was “binds”.
For B4, the binding result is “binds”.
On to B5, for which the binding entry is listed as “binds”.
Still for that read-out and setting: for B6 the value was “binds”.

Another test shares this target. The test is described as follows: SPR (Biacore T100), steady state affinity model, transferrin immobilized. Background: In SPR one partner is held on a chip, and binding of the other changes the refractive index at the surface.
Regarding B7, the binding entry is reported as “no binding (tested: 300 uM)”.
With B8, the binding entry is “no binding (tested: 300 uM)”.
